Source: patent US20120020965A1
These are yes or no findings as the source states them, for the method shown. Some results given as binding are weak or reduced against the parent protein; the word gives no strength. Sequences can lack the tags named with a protein.

Assays:
human CD180 (human) [1] = molecular target: T1, human CD180 (human) (UniProt Q99467); assay: binding to human B cells (FIG. 8)
T1 sequence (looked up): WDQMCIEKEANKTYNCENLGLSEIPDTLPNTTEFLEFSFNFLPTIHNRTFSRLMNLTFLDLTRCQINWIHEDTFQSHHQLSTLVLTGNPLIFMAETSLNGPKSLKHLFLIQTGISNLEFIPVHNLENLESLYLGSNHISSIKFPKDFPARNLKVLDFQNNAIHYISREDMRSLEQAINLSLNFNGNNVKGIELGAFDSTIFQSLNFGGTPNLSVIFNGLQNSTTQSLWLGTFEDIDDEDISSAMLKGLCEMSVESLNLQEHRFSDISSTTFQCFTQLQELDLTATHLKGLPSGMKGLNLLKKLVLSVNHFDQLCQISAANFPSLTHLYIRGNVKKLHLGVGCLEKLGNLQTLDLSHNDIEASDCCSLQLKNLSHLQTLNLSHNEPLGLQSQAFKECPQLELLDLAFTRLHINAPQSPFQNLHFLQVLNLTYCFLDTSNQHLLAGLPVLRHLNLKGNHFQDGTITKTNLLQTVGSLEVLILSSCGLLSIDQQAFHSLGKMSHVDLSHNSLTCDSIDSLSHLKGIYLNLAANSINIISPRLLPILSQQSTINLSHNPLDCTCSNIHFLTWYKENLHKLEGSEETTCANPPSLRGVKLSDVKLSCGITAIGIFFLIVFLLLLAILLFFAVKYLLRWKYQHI

human CD180 (human) [2] = molecular target: T1, human CD180 (human); assay: binding to an immortalized human B cell line (FIG. 8)
human CD180 (human) [3] = molecular target: T1, human CD180 (human); assay: binding to human B cells

Measured: binding

B1: G28-8 scFv-Fc (CD180 specific scFv-Fc constructed from the cloned variable regions of mAb G28-8, altered human IgG1 Fc with P238S, P331S, K322S) (Fc fusion)
scFv: DIQMTQSPASLSASVGETVTITCRASEKIYSYLAWYQQKQGKSPQLLVYNAKTLAEGVPSRFSVSGSGTQFSLRINSLQPEDFGTYYCQHHFGSPRTFGGGTKLEIKDLGGGGSGGGGSGGGGSGGGGSTGEVQLQQSGPELVKPGASMKISCKASGYSFTGYTMNWVKQSHGKTLEWIGLINPYNGVTSYNQKFKDKATLTVDKSSSTAYMELLSLTSEDSAIYYCARDYNYDYFDYWGQGTTLTVSSDLEPKSSDKTHTCPPCPAPELLGGSSVFLFPPKPKDTLMISRTPEVTCVVVDVSQEDPEVQFNWYVDGMEVHNAKTKPREEQFNSTFRVVSVLTVVHQDWLNGKEYKCKVSNKALPASIEKTISKTKGQPREPQVYTLPPSREEMTKNQVSLTCLVKGFYPSDIAVEWESNGQPENNYNTTPPVLDSDGSFSLYSKLTVDKSRWQQGNVFSCSVMHEALHNHYTQKSLSLSPGK
binds: all assays above
